The assay is described as follows: qHTS Assay for Lipid Storage Modulators in Drosophila S3 Cells.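 For cell number change: cells counted by Cell Tracker Red CMTPX staining in the red channel.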 The conditions noted are these: BODIPY lipid droplet fluorescence, 18-24 h; for cell number change: measured here: cell count max response, cells fed with added oleic acid. The gist of the method:
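Drosophila S3 cells loaded with oleic acid (400 uM, as added) and compounds at several concentrations; lipid droplets imaged by 488-nm laser-scanning cytometry, 500–530 nm intensity and object ratio to cell channel. Percent activity normalized to 20 uM Triacsin C.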
(Quantitative high-throughput screening tests each substance at several concentrations.)

[1] abbreviates: measured here: cell number channel AC50, cells fed with added oleic acid.
Where [2] appears, read: measured here: lipid fluorescence (Fed channel) AC50, cells fed with added oleic acid.

SMILES strings stand for the structures. Some of the results follow. Further columns of the screen follow, without active or inactive calls. Most of these compounds were active or inconclusive in the main read-out, so they are no random draw. Words in brackets tell the shape of the fitted curve; partial curves, single points and poor fits give uncertain potencies.

For 40 molecules, cell number change and AC50 results are on record in PubChem BioAssay AID2685 (National Center for Advancing Translational Sciences (NCATS), 2010).

The AC50 is the midpoint of the concentration-response curve, whichever way the signal moves. Low readings indicate activity at low concentration, high ones activity only at high concentration.

Take `CCCNC(=O)N1[C@H]2CC[C@@H]1C(C(=O)OC)=C(c1c(C)noc1C)C2`: the cell number change was -19%. Also, under setting [1], the AC50 is 0.058 µM [falling, full curve, poor fit]. For the same molecule, under setting [2], the AC50 was 9.2 µM [rising, partial curve].

As to `CCCCCCCCn1sccc1=O`, the cell number change is -15.2%. For the same molecule, the AC50 under setting [1] is 0.13 µM [falling, full curve, poor fit].

For the molecule `Cc1csc(=N)n1Cc1ccccc1`, the cell number change is 1.75%. Under setting [1], the half-maximal activity concentration (AC50) is 4.11 µM [falling, single point]. Moreover, the half-maximal activity concentration (AC50) under setting [2] is 29.1 µM [falling, single point].

With `COc1ccc(-c2nn(CCC#N)cc2C(=O)Nc2ccccc2Cl)cc1`, the cell number change was -47.2%. Besides, the AC50 under setting [1] is 20.6 µM [falling, partial curve, poor fit].

With `CCCNC(=O)c1c(N)n(CC2CCCO2)c2nc3ccccc3nc12` (stereo not drawn), the cell number change was -47.7%. Also, the AC50 under setting [1] was 11.6 µM [falling, partial curve, poor fit].

Take `CC(C)NC(C)C(=O)C12CC3CC(CC(C3)C1)C2` (stereo not drawn): the cell number change was 5.56%. Also, the AC50 under setting [2] was 6.51 µM [falling, single point].

With `Fc1ccccc1N1CCN(Cc2c(F)cccc2F)CC1`, the cell number change was -28.4%. The AC50 under setting [2] was 29.1 µM [falling, single point].

With `COc1ccc(NS(=O)(=O)c2ccc(OCC(=O)N3CCN(C)CC3)cc2)cc1Cl`, the cell number change turned out to be 26.8%. The concentration at half-maximal activity (AC50) under setting [1] was 0.00651 µM [rising, full curve, poor fit].

For `COc1ccc(CN2C(=O)NC(=O)/C(=C/c3ccoc3)C2=O)cc1`, the cell number change is -17.5%.

As to `COc1cccc(CN2CCNCC2)c1`, the cell number change was found to be 7.09%. For the same molecule, the half-maximal activity concentration (AC50) under setting [2] was 29.1 µM [rising, single point].

For `C[N+]1(C)C2CC[C@H]1CC(OC(=O)C(CO)c1ccccc1)C2` (stereo partly drawn), the cell number change is 4.39%. The AC50 under setting [1] is 1.84 µM [falling, partial curve, poor fit].

`CN1CCN(c2ccc(S(=O)(=O)C(F)(F)F)cc2[N+](=O)[O-])CC1`: the cell number change was -19.7%. In addition, under setting [2], the AC50 was 18.4 µM [falling, single point].

Regarding `COc1ccc(OC)c(NC2=NCCCS2)c1`, the cell number change was 10.8%. Moreover, under setting [1], the concentration at half-maximal activity (AC50) was 3.66 µM [falling, single point].

On to `c1ccc(CNc2ncnc3nc[nH]c23)cc1`, for which the AC50 under setting [1] was 0.116 µM [falling, full curve, poor fit].

As for `O=C(Nc1c(F)cc(F)cc1F)c1cccn(Cc2ccccc2)c1=O`, the cell number change amounted to 6.24%. In addition, under setting [2], the AC50 was 6.51 µM [rising, partial curve, poor fit].

On to `Oc1ccc2ccccc2c1CN1CC=C(c2ccccc2)CC1`, for which the cell number change is -11.2%.

Consider `CCCCn1c(O)c(C(CC)=NC(C)c2ccccc2)c(=O)[nH]c1=O` (stereo not drawn), for which the cell number change was -103%. Also, under setting [1], the AC50 was 18.4 µM [falling, single point].

In the case of `COc1ccc2[nH]c(C)c(CCNCc3cc(OC)c(OC)c(OC)c3)c2c1`, the AC50 runs as follows: under setting [1], 1.03 µM [falling, full curve]; under setting [2], 1.16 µM [falling, full curve].

As to `C#CCOc1cc(C2C3=C(COC3=O)Nc3cc4c(cc32)OCO4)ccc1OC` (stereo not drawn), the cell number change was 11%.

With `O=c1[nH]c(=O)n(Cc2ccccc2)c(O)c1C=Nc1ccc(CN2CCOCC2)cc1`, the cell number change was -31.8%. Moreover, the half-maximal activity concentration (AC50) under setting [1] was 6.51 µM [falling, partial curve, poor fit].

For `Fc1cccc(F)c1CN1CCN(c2ccc(Cl)cc2)CC1`, the cell number change was -27.9%.

Turning to `Cc1cccc(-n2c(-c3ccccc3)nc3ccccc3c2=O)n1`, the cell number change came to 13.4%. Further, the AC50 under setting [2] was 0.651 µM [rising, partial curve].

For the molecule `COc1ccc(-n2c(-c3ccco3)nc3ccccc3c2=O)cc1`, the cell number change came to 23.3%. Moreover, the half-maximal activity concentration (AC50) under setting [1] is 0.731 µM [rising, full curve, poor fit].

For the molecule `CSc1ncc(Cl)c(C(=O)O)n1` (tested in a mixture with another compound), the cell number change was -3.15%. In addition, the AC50 under setting [2] was 29.1 µM [falling, single point].

Regarding `CCN1CCN(Cc2cc(Br)cc(OC)c2O)CC1`, the cell number change was -22%. The AC50 under setting [2] is 0.58 µM [falling, single point].

For the molecule `O=C(C[N+]12CCN(CC1)CC2)NCCc1ccc(Cl)cc1Cl`, the cell number change was determined as 4.52%.

With `CC(CCc1ccccc1)NCCC#N` (stereo not drawn), the cell number change was -35.9%. Besides, the concentration at half-maximal activity (AC50) under setting [1] is 16.4 µM [falling, single point].

Regarding `C[C@]12CCC3C(CCC4=C/C(=N/OCC(=O)NC(CCC(N)=O)C(=O)O)CC[C@@]43C)C1CCC2O` (stereo partly drawn), the cell number change is -11.3%. Further, the half-maximal activity concentration (AC50) under setting [1] was 0.58 µM [rising, single point].

Consider `COc1cccc(N2C(=O)NC(=O)C3(Cc4cc(C)ccc4N(C)C3)C2=O)c1` (stereo not drawn), for which the cell number change is -2.71%. Besides, under setting [2], the AC50 was 0.00461 µM [falling, full curve, poor fit].

For `CC1CCCC(NC(=O)COC(=O)c2cn(C)c3ccccc23)C1C` (stereo not drawn), the cell number change was found to be 18.5%. For the same molecule, the AC50 under setting [2] was 1.46 µM [rising, partial curve, poor fit].

In the case of `C[C@]12CCC(=O)C=C1CC[C@@H]1C2CC[C@]2(C)C(=O)CCC12` (stereo partly drawn), the cell number change was -11.7%.

For the molecule `COC(=O)C1=C(c2ccc(-c3ccccc3)c(F)c2)C[C@@H]2CC[C@H]1N2C(=O)NC1Cc2ccccc2C1`, the AC50 under setting [2] is 8.2 µM [falling, partial curve].

In the case of `Cn1ccnc1P(=S)(c1nccn1C)c1nccn1C`, the cell number change is -10.4%. In addition, the concentration at half-maximal activity (AC50) under setting [2] was 0.13 µM [falling, full curve, poor fit].

On to `CCCCCCC(=O)c1c(O)n(-c2ccccc2OC)c(=O)[nH]c1=O`, for which, under setting [2], the AC50 was 0.411 µM [falling, full curve, poor fit].

Consider `CC1(C)CN=C(NCc2ccccc2Cl)S1`, for which the cell number change was -15.6%. Under setting [1], the half-maximal activity concentration (AC50) was 0.651 µM [falling, full curve, poor fit]. Besides, the AC50 under setting [2] was 0.731 µM [falling, full curve].

For the molecule `Cc1cc(OC(C)C(=O)NCC2CCC(C(=O)O)CC2)c2c3c(c(=O)oc2c1)CCC3` (stereo not drawn), the cell number change is -15.6%.

As to `O=[N+]([O-])NC1=NCCN1Cc1ccc(Cl)nc1`, the cell number change is -21.4%. Also, the AC50 under setting [2] is 0.0082 µM [falling, full curve, poor fit].

Turning to `C[C@]12CC[C@@H](O)C[C@H]1CC[C@@H]1[C@@H]2CC[C@]2(C)C(=O)CC[C@@H]12`, the cell number change is -27.9%. Under setting [2], the AC50 is 14.6 µM [falling, single point].

For `CC1CCCCN1Cc1cccnc1` (stereo not drawn), the cell number change was found to be 4.87%. Moreover, the AC50 under setting [2] is 29.1 µM [falling, single point].

On to `CCOC(=O)c1sc(N=Nc2c(O)[nH]c(=O)[nH]c2=O)c(C(=O)OCC)c1C`, for which the cell number change turned out to be 1.96%. Besides, the half-maximal activity concentration (AC50) under setting [2] is 29.1 µM [rising, single point].
